The text below walks through data of publication PMC8867601, “The TERB1 MYB domain suppresses telomere erosion in meiotic prophase I”.

Chains of the proteins cited; added tags and fusions are not shown.
UniProt Q9CW03: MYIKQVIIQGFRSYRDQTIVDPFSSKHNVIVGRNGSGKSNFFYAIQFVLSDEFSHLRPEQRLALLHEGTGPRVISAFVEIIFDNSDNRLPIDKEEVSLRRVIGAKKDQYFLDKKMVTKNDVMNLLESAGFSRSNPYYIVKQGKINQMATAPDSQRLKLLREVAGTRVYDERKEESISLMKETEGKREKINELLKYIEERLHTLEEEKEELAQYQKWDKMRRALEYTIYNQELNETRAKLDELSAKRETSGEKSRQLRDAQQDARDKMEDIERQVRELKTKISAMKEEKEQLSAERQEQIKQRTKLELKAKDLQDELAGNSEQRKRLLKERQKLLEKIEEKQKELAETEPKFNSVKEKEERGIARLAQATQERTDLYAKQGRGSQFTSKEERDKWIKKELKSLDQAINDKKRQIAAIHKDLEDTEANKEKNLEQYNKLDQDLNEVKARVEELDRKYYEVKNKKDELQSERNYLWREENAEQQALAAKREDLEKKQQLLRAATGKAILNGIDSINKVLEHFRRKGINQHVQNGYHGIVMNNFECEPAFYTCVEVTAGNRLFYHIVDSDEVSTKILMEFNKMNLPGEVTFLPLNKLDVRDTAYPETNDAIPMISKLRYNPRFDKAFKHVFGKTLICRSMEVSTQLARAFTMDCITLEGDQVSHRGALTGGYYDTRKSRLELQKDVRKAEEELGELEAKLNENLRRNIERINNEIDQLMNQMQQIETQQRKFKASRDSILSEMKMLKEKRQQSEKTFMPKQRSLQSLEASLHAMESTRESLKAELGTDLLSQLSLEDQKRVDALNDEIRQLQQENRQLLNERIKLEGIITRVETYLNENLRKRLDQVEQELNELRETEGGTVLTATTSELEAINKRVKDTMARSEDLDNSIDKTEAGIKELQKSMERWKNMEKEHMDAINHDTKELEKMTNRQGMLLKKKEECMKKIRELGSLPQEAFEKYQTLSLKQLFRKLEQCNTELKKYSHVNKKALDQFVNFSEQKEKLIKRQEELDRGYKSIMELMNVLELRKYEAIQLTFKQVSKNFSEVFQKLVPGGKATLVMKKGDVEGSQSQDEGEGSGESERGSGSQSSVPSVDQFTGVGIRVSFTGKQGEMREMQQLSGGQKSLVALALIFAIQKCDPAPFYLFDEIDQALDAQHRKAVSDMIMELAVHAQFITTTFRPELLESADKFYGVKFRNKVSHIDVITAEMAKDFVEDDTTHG

Holding throughout (experiment): co-IP; anti-TERB1 antibody (or control IgG) on Dynabeads protein A; high-salt (400 mM KCl) extract of the pellet of WT or Terb1^ΔMYB/ΔMYB testes; 6 h at 4°C; washed with high-salt buffer; western blot
(Immunoblotting shows a protein as a band on a membrane.)

The target of assay [1] is T1, TERB1 (wild-type protein, mouse testis) (mouse (endogenous in testis)) (UniProt Q8C0V1).
T1 sequence: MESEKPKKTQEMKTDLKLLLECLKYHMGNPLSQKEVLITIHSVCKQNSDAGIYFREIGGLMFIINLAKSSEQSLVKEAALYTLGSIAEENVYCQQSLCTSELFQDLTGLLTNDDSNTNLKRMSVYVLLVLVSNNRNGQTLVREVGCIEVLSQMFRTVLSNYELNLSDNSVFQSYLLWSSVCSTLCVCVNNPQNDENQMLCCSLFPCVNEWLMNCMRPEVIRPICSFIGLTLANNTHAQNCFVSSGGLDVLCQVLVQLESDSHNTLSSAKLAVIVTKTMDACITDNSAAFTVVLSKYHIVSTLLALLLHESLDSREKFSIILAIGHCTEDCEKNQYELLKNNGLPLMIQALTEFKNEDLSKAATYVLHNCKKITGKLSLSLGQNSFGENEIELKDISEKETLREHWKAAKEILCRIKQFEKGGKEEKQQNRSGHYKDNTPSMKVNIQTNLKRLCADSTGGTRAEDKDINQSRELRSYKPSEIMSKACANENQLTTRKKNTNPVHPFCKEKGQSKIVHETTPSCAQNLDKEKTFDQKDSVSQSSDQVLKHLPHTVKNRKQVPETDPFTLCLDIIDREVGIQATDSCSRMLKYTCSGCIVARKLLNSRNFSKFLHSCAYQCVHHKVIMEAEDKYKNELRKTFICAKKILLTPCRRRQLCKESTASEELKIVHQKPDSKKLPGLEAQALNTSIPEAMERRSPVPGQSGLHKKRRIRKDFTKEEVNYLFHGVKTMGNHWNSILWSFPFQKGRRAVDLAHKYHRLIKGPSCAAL

The target of assay [2] is T2, TERB1^ΔMYB (truncated TERB1, 1-703 amino acids, lacking the C-terminal MYB domain) (mouse (endogenous in testis)) (UniProt Q8C0V1).
T2 sequence: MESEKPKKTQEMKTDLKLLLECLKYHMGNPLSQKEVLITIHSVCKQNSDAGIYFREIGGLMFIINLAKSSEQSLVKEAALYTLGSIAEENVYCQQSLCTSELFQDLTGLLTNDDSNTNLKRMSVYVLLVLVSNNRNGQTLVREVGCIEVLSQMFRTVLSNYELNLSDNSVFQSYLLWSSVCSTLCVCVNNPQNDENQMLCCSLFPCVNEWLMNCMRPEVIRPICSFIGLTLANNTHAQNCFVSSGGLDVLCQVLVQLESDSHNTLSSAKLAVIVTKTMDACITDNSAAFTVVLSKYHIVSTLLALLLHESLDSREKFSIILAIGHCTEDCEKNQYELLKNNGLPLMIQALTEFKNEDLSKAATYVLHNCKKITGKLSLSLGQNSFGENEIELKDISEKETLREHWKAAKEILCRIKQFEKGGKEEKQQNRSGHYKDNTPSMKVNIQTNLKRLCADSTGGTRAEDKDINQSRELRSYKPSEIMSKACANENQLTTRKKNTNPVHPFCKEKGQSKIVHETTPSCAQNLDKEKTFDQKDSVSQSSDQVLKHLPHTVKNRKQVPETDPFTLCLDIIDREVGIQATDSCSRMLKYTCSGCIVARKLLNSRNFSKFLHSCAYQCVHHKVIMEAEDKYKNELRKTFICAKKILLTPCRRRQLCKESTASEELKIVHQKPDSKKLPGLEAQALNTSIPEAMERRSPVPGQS

Assay [3] concerns the target T1, TERB1 (wild-type protein, mouse testis) (mouse (endogenous in testis)). This is another data set of the same source.

Read-outs that look alike come from different tables or passages of the source. No constants are given. Whether binding was seen depends on the method and setting. In cells and extracts the contact can be indirect. Some binding calls cover weakened binding; strength is not graded here.

Take SMC3 (from UniProt Q9CW03 1-1217): the binding result in assay [1] is reported as “binds”.

B1: TERB2 (protein, UniProt Q9D494 1-218)
chain: MFQGQRGWFCGSVSQDLRQIWEDEGGMVSDVKAADFLFSCDASHPDTLRIYQSLEYIEDNATVFHAYYLAAIANTEMKNSVALGHFVLPPACLQKEIRRKIGSFIWEQDEKFQIEKHDRMASSDKENIRPTPEHKQELSKSAEHHLTRTPVIEKQMCFPLHSYPVNNMVTGYISIDALEKFLGELHDFTPGSSGYLAYHIQDEINMSAIKNKLRRKLS
In the case of B1, the binding result in assay [2] and in assay [3] was “binds” throughout.

B2: SYCP3 (protein, UniProt P70281 1-254)
chain: MLRGCGDSDSSPEPLSKHLKMVPGGRKHSGKSGKPPLVDQPKKAFDFEKDDKDLSGSEEDVADEKAPVIDKHGKKRSAGIIEDVGGEVQNMLEKFGADINKALLAKRKRIEMYTKASFKASNQKIEQIWKTQQEEIQKLNNEYSQQFMNVLQQWELDIQKFEEQGEKLSNLFRQQQKIFQQSRIVQSQRMFAMKQIHEQFIKSLEDVEKNNDNLFTGTQSELKKEMAMLQKKVMMETQQQEMANVRKSLQSMLF
With B2, the binding result in assay [3] was “binds”.

B3: MAJIN (protein, UniProt Q9D992 1-256)
chain: MSLKPFTYPFPETRFLHAGPNVYKFKIRYGNSIRGEEIEDKEVIVQELEDSIRAVLANMDSLQPFVTEHFIVFPYKSKWERVSHLKFKHGESILTPYPFVFTLYIEMKWFAEDLPSGKPADDIPLELVLAETEAEEATMRKWKRKLMEEPSSPSRQGPHRAKMETSSEASSNKKPLKESKRSTDEEAQQEYQDTPASNAIAVKEQDAALGHGLQGLVVPPLQHSSPPPPKEPGARGFLGFLSALFPFRYFFKKSGQ
For B3, the binding result in assay [2] and in assay [3] was “binds” throughout.
